Laboratory results from article PMC5640665.
These are yes or no findings as the source states them, for the method shown. In cells and extracts the contact can be indirect. Some entries that bind do so weakly or less than the wild type.

Sequences of proteins named here, by UniProt entry; tags and fusion partners are left off.
UniProt P42003: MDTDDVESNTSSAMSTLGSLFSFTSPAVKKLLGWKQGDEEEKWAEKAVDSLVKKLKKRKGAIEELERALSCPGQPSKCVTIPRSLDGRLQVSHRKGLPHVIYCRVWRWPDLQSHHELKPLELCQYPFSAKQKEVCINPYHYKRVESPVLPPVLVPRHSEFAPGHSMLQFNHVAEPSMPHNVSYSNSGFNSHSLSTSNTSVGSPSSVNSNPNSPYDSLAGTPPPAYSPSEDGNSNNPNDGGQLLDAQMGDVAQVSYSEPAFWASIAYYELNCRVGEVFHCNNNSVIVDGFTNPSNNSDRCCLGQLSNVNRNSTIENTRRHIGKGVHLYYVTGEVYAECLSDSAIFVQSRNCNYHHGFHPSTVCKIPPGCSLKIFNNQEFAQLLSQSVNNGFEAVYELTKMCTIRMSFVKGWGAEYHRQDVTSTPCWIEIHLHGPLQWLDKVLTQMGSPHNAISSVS
UniProt P52168: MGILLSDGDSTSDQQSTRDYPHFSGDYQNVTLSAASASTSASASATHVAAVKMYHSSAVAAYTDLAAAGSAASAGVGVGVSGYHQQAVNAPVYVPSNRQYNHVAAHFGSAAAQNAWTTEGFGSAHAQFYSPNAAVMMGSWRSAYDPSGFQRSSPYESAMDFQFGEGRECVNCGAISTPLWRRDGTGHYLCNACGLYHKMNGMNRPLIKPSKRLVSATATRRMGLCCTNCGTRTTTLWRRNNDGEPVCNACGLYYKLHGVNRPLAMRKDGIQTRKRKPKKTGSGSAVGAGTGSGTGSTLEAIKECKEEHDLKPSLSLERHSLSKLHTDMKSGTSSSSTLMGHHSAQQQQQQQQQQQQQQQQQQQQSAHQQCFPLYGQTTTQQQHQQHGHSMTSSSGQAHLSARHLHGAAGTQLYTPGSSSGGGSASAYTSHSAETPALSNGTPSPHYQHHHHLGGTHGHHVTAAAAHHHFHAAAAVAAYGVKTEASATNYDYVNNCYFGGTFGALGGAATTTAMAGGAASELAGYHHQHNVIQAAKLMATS

Molecular target: Mad (Drosophila (endogenous in larvae)) (UniProt P42003)
Assay: co-IP; Drosophila larval lysates in CHAPS buffer (20 mM HEPES pH 7.5, 150 mM NaCl, 1 mM EDTA, 0.1% CHAPS); goat anti-Mad antibody, Protein G Dynabeads, 4 °C; blot with mouse anti-Pnr

**Q.** How did the binding turn out when Pannier (from UniProt P52168 1-540) was run?
**A.** binds
